Assay results taken from patent US8729028B2 (Caregen Co., Ltd., priority 2009, dated 2014).

Test: general procedure: peptide synthesis; chlorotrityl chloride resin
Conditions: whole synthesis

In the case of “Glu-Leu-Ile-Glu-His (SEQ ID NO:2)-Linker-Arg-Pro-Ala-Asp (SEQ ID NO:3) peptide (linker=Gly-Gly-Gly) (ELIEHGGGRPAD; listed as Homo sapiens)”, the crude mass is reported as 1.11 g and the crude yield (scale of the general procedure 700 mg resin) is reported as 88.2%.
